Results reported in publication PMC8211822, “CRISPR-Associated Primase-Polymerases are implicated in prokaryotic CRISPR-Cas adaptation” (Nature Communications, 2021).
Results are given in words; binding and its absence hold for the method and conditions named. Some binding calls cover weakened binding; strength is not graded here. Tags and fused reporters may be left off the sequences shown.

Experiments:
Experiment in all cases: two-hybrid; GAL4 activation-domain and DNA-binding-domain fusions co-transformed into S. cerevisiae PJ69-4A; drop tests on medium lacking leucine, tryptophan and histidine (with 3-AT) or adenine; 3 days at 30 °C
[1] = target: T1, Marinitoga piezophila Argonaute (MpAgo), GAL4 fusion (Marinitoga piezophila) (UniProt H2J4R4)
T1 sequence: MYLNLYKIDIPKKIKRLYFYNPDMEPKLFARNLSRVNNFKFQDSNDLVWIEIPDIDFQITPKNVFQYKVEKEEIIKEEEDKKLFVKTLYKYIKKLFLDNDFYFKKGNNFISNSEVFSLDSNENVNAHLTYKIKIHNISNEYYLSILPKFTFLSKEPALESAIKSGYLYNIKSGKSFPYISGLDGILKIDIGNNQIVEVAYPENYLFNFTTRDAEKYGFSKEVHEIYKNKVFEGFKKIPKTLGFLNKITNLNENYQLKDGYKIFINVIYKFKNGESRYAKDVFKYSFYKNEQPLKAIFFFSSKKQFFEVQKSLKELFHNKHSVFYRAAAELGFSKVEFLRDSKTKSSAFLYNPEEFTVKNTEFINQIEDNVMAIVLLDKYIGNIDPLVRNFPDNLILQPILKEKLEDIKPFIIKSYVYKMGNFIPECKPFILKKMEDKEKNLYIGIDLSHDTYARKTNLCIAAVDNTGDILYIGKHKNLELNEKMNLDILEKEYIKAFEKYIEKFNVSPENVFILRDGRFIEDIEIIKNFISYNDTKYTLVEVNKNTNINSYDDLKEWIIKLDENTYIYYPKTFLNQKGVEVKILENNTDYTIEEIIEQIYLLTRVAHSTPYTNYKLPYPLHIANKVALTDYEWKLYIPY

[2] = target: T2, Marinitoga piezophila CRISPR-associated Prim-Pol (MpCAPP), full length, GAL4 fusion (Marinitoga piezophila) (UniProt H2J4R1)
T2 sequence: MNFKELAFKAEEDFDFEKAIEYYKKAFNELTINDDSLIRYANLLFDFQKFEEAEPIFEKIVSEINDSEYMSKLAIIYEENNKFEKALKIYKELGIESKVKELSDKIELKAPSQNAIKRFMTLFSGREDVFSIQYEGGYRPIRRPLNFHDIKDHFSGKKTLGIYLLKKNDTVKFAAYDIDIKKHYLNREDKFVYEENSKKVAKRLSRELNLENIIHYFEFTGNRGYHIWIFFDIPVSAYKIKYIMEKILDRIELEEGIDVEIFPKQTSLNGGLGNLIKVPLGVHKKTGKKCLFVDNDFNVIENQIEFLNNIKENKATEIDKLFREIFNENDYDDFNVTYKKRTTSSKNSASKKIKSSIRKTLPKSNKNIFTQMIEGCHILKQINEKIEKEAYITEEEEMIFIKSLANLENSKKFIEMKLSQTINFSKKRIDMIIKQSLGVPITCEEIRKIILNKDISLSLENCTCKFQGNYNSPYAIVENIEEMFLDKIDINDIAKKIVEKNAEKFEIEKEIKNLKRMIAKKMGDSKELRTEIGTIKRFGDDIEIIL

[3] = target: MpCAPP CTD fragment (aa. 360-546), GAL4 fusion (Marinitoga piezophila) (UniProt H2J4R1)
[4] = target: T3, MpCAPP ΔCTD fragment (aa. 1-360), GAL4 fusion (Marinitoga piezophila) (UniProt H2J4R1)
T3 sequence: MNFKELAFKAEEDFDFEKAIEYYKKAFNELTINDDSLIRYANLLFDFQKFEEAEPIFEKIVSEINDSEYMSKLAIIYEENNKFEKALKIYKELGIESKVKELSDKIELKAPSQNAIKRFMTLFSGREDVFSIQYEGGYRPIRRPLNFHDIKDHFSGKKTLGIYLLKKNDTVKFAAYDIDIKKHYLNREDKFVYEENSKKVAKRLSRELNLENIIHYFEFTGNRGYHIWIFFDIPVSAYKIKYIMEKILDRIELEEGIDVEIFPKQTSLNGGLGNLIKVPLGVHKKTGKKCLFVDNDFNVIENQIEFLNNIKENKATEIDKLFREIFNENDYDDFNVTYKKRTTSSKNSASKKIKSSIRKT

[5] = target: Marinitoga piezophila integration host factor (MpIHF), GAL4 fusion (Marinitoga piezophila) (UniProt H2J7L5)

B1: Marinitoga piezophila CRISPR-associated Prim-Pol (MpCAPP), full length, GAL4 fusion (enzyme, UniProt H2J4R1 1-546)
chain: T2 sequence
With B1 the binding [1] was “binds” and the binding [2] was “binds”.

B2: MpCAPP CTD fragment (aa. 360-546), GAL4 fusion (domain or fragment, UniProt H2J4R1 360-546)
chain: TLPKSNKNIFTQMIEGCHILKQINEKIEKEAYITEEEEMIFIKSLANLENSKKFIEMKLSQTINFSKKRIDMIIKQSLGVPITCEEIRKIILNKDISLSLENCTCKFQGNYNSPYAIVENIEEMFLDKIDINDIAKKIVEKNAEKFEIEKEIKNLKRMIAKKMGDSKELRTEIGTIKRFGDDIEIIL
B2 was tested, and the binding [1] was “binds”, the binding [2] was “binds” and the binding [3] was “binds”.

B3: MpCAPP TPR fragment (aa. 1-100), GAL4 fusion (domain or fragment, UniProt H2J4R1 1-100)
chain: MNFKELAFKAEEDFDFEKAIEYYKKAFNELTINDDSLIRYANLLFDFQKFEEAEPIFEKIVSEINDSEYMSKLAIIYEENNKFEKALKIYKELGIESKVK
B3 was tested, and the binding [4] was “binds”.

B4: MpCAPP ΔCTD fragment (aa. 1-360), GAL4 fusion (domain or fragment, UniProt H2J4R1 1-360)
chain: T3 sequence
B4 was tested, and the binding [2] was “binds weakly” and the binding [4] was “binds weakly”.

B5: AD-MpCAPP fused to MBP (AD-MpCAPP-MBP) (enzyme, UniProt H2J4R1 1-546)
chain: T2 sequence
In the case of B5, the binding [2] is reported as “binds”.

B6: Marinitoga piezophila integration host factor (MpIHF), GAL4 fusion (protein, UniProt H2J7L5 1-90)
chain: MNKKELVSALAEKLSVTKKEAALFVDSFVDVVSEALSKGDNVKIVGFGTFEVVERKPRKGVNPQTKETIEIPGGKVPKFKAGKELKAKVK
In the case of B6, the binding [5] is reported as “binds”.
